# Record: PubChem BioAssay AID1053208 (Peter MacCallum Cancer Centre, 2014)
# Assay: 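Genes whose silencing cuts survival of bone tumour cells only with doxorubicin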 (primary screen)
# Cells: mouse osteosarcoma cells, early-passage culture from an engineered mouse model of fibroblastic bone tumour
# Knock-down reagent: siRNA pool against mouse genes, 40 nM
# Timing: about 120 h (48 h before drug, then 72 h with drug)
# Treatment: doxorubicin 100 nM for 72 h, roughly 30-40% inhibitory dose
# Detection: 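Luminescent ATP signal taken as viability with or without 100 nM doxorubicin for 72 h; mean of two wells set against non-targeting siRNA and turned into robust z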
# Direction: viability z-score with doxorubicin and doxorubicin viability vs non-targeting: higher = more viable cells under doxorubicin; viability z-score without drug: higher = more viable cells with knock-down alone; z-score of drug to no-drug ratio: higher = less drug sensitisation by knock-down
# Call rule: 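Called active if knock-down leaves viability unchanged without drug (z within -2 to 2) but lowers it with doxorubicin (z at or under -2)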
# The deposit covers about 17,000 reagents; this is an unselected part. 788 of them (4.7%) count as active. 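Calls rest on z-score classes alone; an extra cut-off of viability at most 70% of control was not applied to them.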 A number with no mark means an inactive call.
gene,combined z-score class,viability z-score with doxorubicin,viability z-score without drug,z-score of drug to no-drug ratio,doxorubicin viability vs non-targeting
Bola2 (bolA family member 2),no change with or without drug,-0.9,-0.34,-0.67,0.86
Trappc4 (trafficking protein particle complex 4),high cell count with doxorubicin only,3.04,0.51,2.81,1.21
Mcam (melanoma cell adhesion molecule),no change with or without drug,0.22,0.67,-0.11,0.96
Rfwd3 (ring finger and WD repeat domain 3),no change with or without drug,-0.45,-0.17,-0.22,0.9
"Il27ra (interleukin 27 receptor, alpha)",no change with or without drug,-0.22,0.17,-0.22,0.92
Ints12 (integrator complex subunit 12),no change with or without drug,1.24,-0.17,1.57,1.05
Ankk1 (ankyrin repeat and kinase domain containing 1),no change with or without drug,0.56,0.34,0.45,0.99
Or2n1d (olfactory receptor family 2 subfamily N member 1D),no change with or without drug,0,-0.51,0.45,0.94
Psapl1 (prosaposin-like 1),no change with or without drug,0.9,0.17,0.9,1.02
Agbl1 (ATP/GTP binding protein-like 1),no change with or without drug,1.91,1.52,1.01,1.11
Oscp1,no change with or without drug,0.67,0.84,0.22,1
Stk16 (serine/threonine kinase 16),no change with or without drug,1.01,-0.17,1.35,1.03
Zfp30 (zinc finger protein 30),no change with or without drug,0.56,0.34,0.45,0.99
Apex2 (apurinic/apyrimidinic endonuclease 2),no change with or without drug,-0.34,-0.51,0.11,0.91
Foxp3 (forkhead box P3),high cell count with doxorubicin only,2.25,-0.51,2.92,1.14
Fah (fumarylacetoacetate hydrolase),no change with or without drug,1.35,-0.51,1.91,1.06
"Prkcz (protein kinase C, zeta)",no change with or without drug,1.35,0.67,1.01,1.06
Zfp771 (zinc finger protein 771),no change with or without drug,1.01,1.52,0.11,1.03
Fgf15 (fibroblast growth factor 15),no change with or without drug,0,-0.34,0.34,0.94
Rps5 (ribosomal protein S5),low cell count with and without drug,-5.62,-5.4,-3.15,0.44
Xpr1 (xenotropic and polytropic retrovirus receptor 1),no change with or without drug,1.69,1.52,0.79,1.09
Snrpe (small nuclear ribonucleoprotein E),low cell count with and without drug,-6.97,-5.23,-5.4,0.32
Ndufab1 (NADH:ubiquinone oxidoreductase subunit AB1),low cell count without drug only,-1.8,-5.23,2.7,0.78
Or13a25 (olfactory receptor family 13 subfamily A member 25),no change with or without drug,-0.9,-1.69,0.34,0.86
Lhfpl1 (lipoma HMGIC fusion partner-like 1),low cell count with and without drug,-2.7,-2.87,-0.9,0.7
Fbxo9 (F-box protein 9),no change with or without drug,0.45,0.17,0.45,0.98
Taok1 (TAO kinase 1),no change with or without drug,-0.22,1.18,-0.9,0.92
A430033K04Rik (RIKEN cDNA A430033K04 gene),no change with or without drug,-0.45,0.84,-0.9,0.9
Ttc29 (tetratricopeptide repeat domain 29),no change with or without drug,1.24,0.51,1.01,1.05
Cmc2 (C-X9-C motif containing 2),high cell count with doxorubicin only,2.36,0.17,2.47,1.15
Carhsp1 (calcium regulated heat stable protein 1),no change with or without drug,-0.9,0.34,-1.01,0.86
AI593442 (expressed sequence AI593442),no change with or without drug,0,0.17,0,0.94
Arid4a (AT-rich interaction domain 4A),no change with or without drug,-0.45,-0.51,0,0.9

An excerpt from above, limited to “viability z-score without drug”:
Bola2 (bolA family member 2) = -0.34
Trappc4 (trafficking protein particle complex 4) = 0.51
Mcam (melanoma cell adhesion molecule) = 0.67
Rfwd3 (ring finger and WD repeat domain 3) = -0.17
Il27ra (interleukin 27 receptor, alpha) = 0.17
Ints12 (integrator complex subunit 12) = -0.17
Ankk1 (ankyrin repeat and kinase domain containing 1) = 0.34
Or2n1d (olfactory receptor family 2 subfamily N member 1D) = -0.51

More entries follow.
gene,combined z-score class,viability z-score with doxorubicin,viability z-score without drug,z-score of drug to no-drug ratio,doxorubicin viability vs non-targeting
Lrfn3,no change with or without drug,-1.12,-1.01,-0.45,0.84
Gpr33 (G protein-coupled receptor 33),no change with or without drug,0.45,0.34,0.34,0.98
Asl (argininosuccinate lyase),no change with or without drug,-0.56,-0.84,0.11,0.89
Ecrg4 (ECRG4 augurin precursor),no change with or without drug,0.22,1.69,-0.79,0.96
Or2y1e (olfactory receptor family 2 subfamily Y member 1E),no change with or without drug,-1.8,-1.85,-0.56,0.78
Lhfpl6 (LHFPL tetraspan subfamily member 6),no change with or without drug,-1.12,-0.17,-1.01,0.84
C6 (complement component 6),no change with or without drug,1.57,-0.84,2.47,1.08
Trap1 (TNF receptor-associated protein 1),no change with or without drug,-0.22,-1.18,0.79,0.92
Txndc8 (thioredoxin domain containing 8),no change with or without drug,-0.45,1.35,-1.24,0.9
Sgtb,no change with or without drug,0.45,0.51,0.22,0.98
"Zfyve19 (zinc finger, FYVE domain containing 19)",no change with or without drug,-0.22,0,-0.11,0.92
Emilin1 (elastin microfibril interfacer 1),no change with or without drug,0.79,1.18,0.11,1.01
Tgif1 (TGFB-induced factor homeobox 1),no change with or without drug,-1.91,-1.18,-1.12,0.77
"Supt6 (SPT6, histone chaperone and transcription elongation factor)",no change with or without drug,-0.34,0.51,-0.56,0.91
"Ugt2b35 (UDP glucuronosyltransferase 2 family, polypeptide B35)",no change with or without drug,-1.91,-0.51,-1.57,0.77
Or4a71 (olfactory receptor family 4 subfamily A member 71),no change with or without drug,-0.11,-1.52,1.12,0.93
Map3k4 (mitogen-activated protein kinase kinase kinase 4),no change with or without drug,1.12,-0.17,1.46,1.04
Or52r1 (olfactory receptor family 52 subfamily R member 1),no change with or without drug,-1.01,-0.34,-0.79,0.85
T2 (brachyury 2),no change with or without drug,-1.46,-1.85,-0.22,0.81
"Arap1 (ArfGAP with RhoGAP domain, ankyrin repeat and PH domain 1)",low cell count without drug only,-1.57,-2.87,0.56,0.8
Tinag (tubulointerstitial nephritis antigen),no change with or without drug,1.57,0.17,1.69,1.08
Eef1b2 (eukaryotic translation elongation factor 1 beta 2),no change with or without drug,0.45,0.67,0.11,0.98
Map3k12 (mitogen-activated protein kinase kinase kinase 12),no change with or without drug,1.12,-0.17,1.46,1.04
Dctd (dCMP deaminase),no change with or without drug,1.35,0.34,1.24,1.06
Mapkapk5 (MAP kinase-activated protein kinase 5),no change with or without drug,0.9,-0.51,1.46,1.02
Ythdf2 (YTH N6-methyladenosine RNA binding protein 2),high cell count without drug only,1.57,2.19,0.22,1.08
Capstert (catsper channel auxiliary subunit tau),no change with or without drug,-0.22,1.85,-1.24,0.92
Prr11 (proline rich 11),no change with or without drug,-0.22,-0.51,0.22,0.92
Zic1 (zinc finger protein of the cerebellum 1),no change with or without drug,-0.22,1.18,-0.9,0.92
Syt5 (synaptotagmin V),low cell count with doxorubicin only (active),-2.02,-1.69,-1.01,0.76
